Tested on: 60 NCI cancer cell lines
Assay: NCI antiproliferative assay, summary over all lines
Type: cell-based
Conditions: one dose 10 µM; for Number of cell lines with better inhibition than curcumin: of the 56 cell lines in common

Row | Compound | Number of cell lines with <50% GIs | Number of cell lines with better inhibition than curcumin | Number of cell lines with % GIs of ≥68% (active) | Number of cell lines with >50% GIs (and <68% GIs)
1 | COc1ccc(/C=C/c2cc(/C=C/c3ccc(OC)c(O)c3)n(-c3cccc(Cl)c3)c(=S)n2)cc1O [3a] | 56 cell lines | – | – | –
2 | COc1ccc(NC(=O)n2nc(/C=C/c3ccc(O)c(OC)c3)cc2/C=C/c2ccc(O)c(OC)c2)cc1 [3b] | 9 cell lines | 35 cell lines | 32 cell lines | 13 cell lines
3 | COc1cc(/C=C/c2cc(/C=C/c3ccc(O)c(OC)c3)n(C(=O)Nc3ccc(C(F)(F)F)cc3)n2)ccc1O [3c] | 17 cell lines | 27 cell lines | 25 cell lines | 12 cell lines
